Measurements reported in PubChem BioAssay AID652259 (Drosophila RNAi Screening Center, 2013).
In all, the deposit lists about 22,000 reagents; this is an unselected part of those with a known target gene and a result. Over the whole deposit, 233 (1.1%) got an active call. 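Light values are raw, unnormalised plate reads; the ratio scores behind the reporter calls were not deposited.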 A plus sign joins genes that one reagent is predicted to hit. Not stated in the record: the amount of reagent, the time to read-out, the dose of the treatment.

- Assay: 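Genome-wide hunt for genes that control Wingless pathway activity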 (primary screen)
- Cells: Drosophila clone 8 imaginal disc epithelial cells
- Knock-down reagent: long dsRNA against Drosophila genes
- Treatment: pathway stimulated by co-transfected Wingless expression plasmid
- Measured: 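Dual luciferase reads per well after Wingless plasmid stimulation: reporter firefly light and Renilla control light; activity is firefly divided by Renilla, a ratio not deposited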
- Scale: firefly reporter light: higher = more Wg reporter light, before normalisation; Renilla control light: higher = more transfected or surviving cells
- Rule for the call: 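a knock-down is a candidate when at least two out of four statistical tests show it departing from its plate mean; one test alone signals a weak candidate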
- Calls: active = candidate regulator (raises or lowers reporter); inactive = not a candidate

After knock-down of CG3330 [DRSC15477] the results were firefly reporter light, replicate 1 = 2457; firefly reporter light, replicate 2 = 6500; Renilla control light, replicate 1 = 1073; Renilla control light, replicate 2 = 2224; inactive.
CG6431 [DRSC02956] scored firefly reporter light, replicate 1 = 3400; firefly reporter light, replicate 2 = 6710; Renilla control light, replicate 1 = 1349; Renilla control light, replicate 2 = 3697; inactive.
After knock-down of prim [DRSC06575], the screen gave firefly reporter light, replicate 1 = 6320; Renilla control light, replicate 1 = 2754; inactive.
Against CG8173 [DRSC20088], the values are firefly reporter light, replicate 1 = 14723; Renilla control light, replicate 1 = 8311; inactive.
Dpm1 [DRSC02018] showed firefly reporter light, replicate 1 = 2032; firefly reporter light, replicate 2 = 5537; Renilla control light, replicate 1 = 502; Renilla control light, replicate 2 = 2097; inactive.
For CG33639 [DRSC19966] the deposit lists firefly reporter light, replicate 1 = 27592; Renilla control light, replicate 1 = 12217; inactive.
Against CG33639 [DRSC22820], the values are firefly reporter light, replicate 1 = 5.11e5; firefly reporter light, replicate 2 = 5.32e5; Renilla control light, replicate 1 = 1.50e5; Renilla control light, replicate 2 = 1.76e5; inactive.
With knock-down of FucTB [DRSC02745] the results were firefly reporter light, replicate 1 = 3248; firefly reporter light, replicate 2 = 5088; Renilla control light, replicate 1 = 982; Renilla control light, replicate 2 = 2802; inactive.
Knock-down of SPARC [DRSC14123] gave: firefly reporter light, replicate 1 = 9428; Renilla control light, replicate 1 = 2406; inactive.
NaPi-T [DRSC07476] scored firefly reporter light, replicate 1 = 6400; Renilla control light, replicate 1 = 3008; inactive.
Sec61beta [DRSC07548] gave reporter change call, replicate 1 = Wg reporter activity lowered; firefly reporter light, replicate 1 = 8983; Renilla control light, replicate 1 = 4070; inactive.
Sec61beta [DRSC21512] showed firefly reporter light, replicate 1 = 2.94e5; firefly reporter light, replicate 2 = 3.75e5; Renilla control light, replicate 1 = 1.26e5; Renilla control light, replicate 2 = 1.15e5; inactive.
Against RabGGTa [DRSC12189], the values are firefly reporter light, replicate 1 = 7843; Renilla control light, replicate 1 = 1877; inactive.
Knock-down of CG7706 [DRSC16295] gave: firefly reporter light, replicate 1 = 2544; firefly reporter light, replicate 2 = 3719; Renilla control light, replicate 1 = 1235; Renilla control light, replicate 2 = 770; inactive.
Depletion of CG14968 [DRSC08427] came out at: firefly reporter light, replicate 1 = 5257; Renilla control light, replicate 1 = 2525; inactive.
Silencing of CG14742 [DRSC14962] resulted in: firefly reporter light, replicate 1 = 21158; Renilla control light, replicate 1 = 7764; inactive.
CG6569 [DRSC16067] scored firefly reporter light, replicate 1 = 35477; Renilla control light, replicate 1 = 6714; inactive.
Depletion of CG15549 [DRSC15087] resulted in: firefly reporter light, replicate 1 = 8768; Renilla control light, replicate 1 = 3208; inactive.
Depletion of thetaTry [DRSC07705] gave: firefly reporter light, replicate 1 = 5506; Renilla control light, replicate 1 = 2700; inactive.
CG33791 + CG12105 + CG18170 [DRSC08387] scored firefly reporter light, replicate 1 = 20729; Renilla control light, replicate 1 = 4525; inactive.
Depletion of CG43116 [DRSC13737] gave: firefly reporter light, replicate 1 = 1660; Renilla control light, replicate 1 = 656; inactive.
Against Plc21C [DRSC00773], the values are firefly reporter light, replicate 1 = 8321; Renilla control light, replicate 1 = 4473; inactive.
Silencing of CG13068 [DRSC09951] gave: firefly reporter light, replicate 1 = 10537; Renilla control light, replicate 1 = 5221; inactive.
ena [DRSC05779] scored firefly reporter light, replicate 1 = 11831; Renilla control light, replicate 1 = 5896; inactive.
With knock-down of ena [DRSC07610] the results were firefly reporter light, replicate 1 = 14022; Renilla control light, replicate 1 = 3699; inactive.

No new results follow: 2 of the entries above.
CG6431 [DRSC02956] — firefly reporter light, replicate 1 = 3400; firefly reporter light, replicate 2 = 6710; Renilla control light, replicate 1 = 1349; Renilla control light, replicate 2 = 3697; activity call = inactive
prim [DRSC06575] — firefly reporter light, replicate 1 = 6320; Renilla control light, replicate 1 = 2754; activity call = inactive
